Taken from: PubChem BioAssay AID743454 (Peter MacCallum Cancer Centre, 2014)
Shown is one part, drawn at random, of about 18,000 reagents tested. In the full data, 450 (2.5%) got an active call. 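Single biological run; no consistent viability z cut-off exists, so the class columns, not z-scores, define the calls.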 Entries without a mark were called inactive.

Screen: 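Search for knock-downs that restore vorinostat killing in resistant colon cancer cells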 (primary screen)
Cell system: human HCT116-VR colon cancer cells, selected for vorinostat resistance
Knock-down reagent: siRNA pool against human genes, 40 nM siRNA pool
Duration: vorinostat for 24 h, read-out about 72 h after transfection
Treatment: vorinostat at 2.5 µM final
Measurement: 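Cell viability by CellTiter-Fluor and caspase 3/7 activity by luminescence, each scaled to mock wells per plate, duplicates averaged, then robust z-scored over all plates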
Direction: viability robust z-score: higher = more viable cells than screen typical; caspase robust z-score: higher = more caspase 3/7 activity than screen typical
Call rule: 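a knock-down is a hit when classed RV1 or RV2 for lowered viability, or CA1 or CA2 for caspase activation; those lethal without drug were dropped; hits were retested singly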

For COG6 (component of oligomeric golgi complex 6), the entry reads viability hit class no change; caspase hit class no change; viability robust z-score 1.07; caspase robust z-score -1.06.
With knock-down of PPCDC (phosphopantothenoylcysteine decarboxylase) the results were viability hit class no change; caspase hit class no change; viability robust z-score 0.02; caspase robust z-score 0.05.
For ITGAM (integrin subunit alpha M), the entry reads viability hit class no change; caspase hit class no change; viability robust z-score 0.14; caspase robust z-score -0.63.
After knock-down of SPTB (spectrin beta, erythrocytic), the record shows viability hit class no change; caspase hit class no change; viability robust z-score 0.96; caspase robust z-score -0.05.
SEZ6L (seizure related 6 homolog like) gave viability hit class no change; caspase hit class no change; viability robust z-score -0.02; caspase robust z-score 1.71.
TAS2R46 (taste 2 receptor member 46) gave viability hit class no change; caspase hit class no change; viability robust z-score -1.6; caspase robust z-score -0.49.
Against TMEM255A (transmembrane protein 255A) the deposit lists viability hit class no change; caspase hit class no change; viability robust z-score 0.03; caspase robust z-score -0.76.
After knock-down of SLC16A14, the record shows viability hit class no change; caspase hit class no change; viability robust z-score 0; caspase robust z-score 1.75.
For RPUSD1 (RNA pseudouridine synthase domain containing 1), the values are viability hit class no change; caspase hit class no change; viability robust z-score 0.36; caspase robust z-score 0.27.
ZNF207 (zinc finger protein 207) scored viability hit class no change; caspase hit class no change; viability robust z-score -1.69; caspase robust z-score -0.4.
For KLHL27 (kelch like family member 27), the entry reads viability hit class no change; caspase hit class no change; viability robust z-score 0.12; caspase robust z-score 0.3.
Depletion of ISCA2 (iron-sulfur cluster assembly 2) gave: viability hit class no change; caspase hit class no change; viability robust z-score 0.79; caspase robust z-score 3.12.
Knock-down of PRAMEF16 (retired record) resulted in: viability hit class no change; caspase hit class no change; viability robust z-score -1.3; caspase robust z-score 2.02.
Depletion of UBA1 (ubiquitin like modifier activating enzyme 1) gave: viability hit class no change; caspase hit class no change; viability robust z-score -0.08; caspase robust z-score 1.21.

Reprinted from the entries so far for reference:
TMEM255A (transmembrane protein 255A) → viability hit class: no change; caspase hit class: no change; viability robust z-score: 0.03; caspase robust z-score: -0.76
SLC16A14 → viability hit class: no change; caspase hit class: no change; viability robust z-score: 0; caspase robust z-score: 1.75
